One series deals with mES cells. The series can be described thus: Ratiometric SAM imaging in mES cells. The format is cell-based, Mouse. Conditions: sensor 4-2.
A further series deals with HEK293T cells. Briefly: Background fluorescence of dye incubated with cells. The format is cell-based. Conditions: 10 μM. Here is the method:
FIG. 31A is a graph showing the results of an experiment evaluating fluorescence of DFAME when mixed with cells. An important criteria for a fluorogenic dye is that it must have very low fluorescence when mixed with cells. To test this, 10 μM DFAME was incubated with cultured HEK293T cells and the fluorescence intensity of the DFAME-incubated cells was measured. […] Although the background fluorescence in cells induced by DFAME (n=48 cells) was higher than DFHO (n=47 cells) or DFHBI-1T (n=44 cells), it was reasoned that DFAME could be used if enough fluorogenic aptamer is used in cells. Data were collected from three independent cell cultures. Values are means±s.d. FIG. 31B is a graph showing the cytotoxicity of DFAME. To apply a fluorogenic dye in cells, it is critical that this dye has minimal cytotoxicity. To test the cytotoxicity of DFAME, HEK293T cells were first incubated with 10 μM DFAME, then illuminated for 10 minutes using a Nikon Intensilight C-HGFIE 130 W mercury lamp with the TRITC filter set. Control cells were illuminated under identical conditions either with 0.2% DMSO (illuminated with the TRITC filter set) or 10 μM malachite green (illuminated with the Cy5 filter set). […] MTT absorbance readings were performed at 550 nm with 650 nm absorbance used for background subtraction. […]

Entries after “also recorded” stand apart in the source; their conditions may differ.

The text below walks through data of patent US20250043290A1, “RNA SEQUENCES THAT INDUCE FLUORESCENCE OF SMALL MOLECULE FLUOROPHORES, MOLECULAR COMPLEXES, SENSORS, AND METHODS OF USE THEREOF” (CORNELL UNIVERSITY, priority 2021, published 2025).

Take `C[S+](CC[C@H](N)C(=O)O)C[C@H]1O[C@@H](n2cnc3c(N)ncnc32)[C@H](O)[C@@H]1O` (stereo partly drawn) [SAM, S-adenosylmethionine]: the “Intracellular SAM concentration” value fell in the range of 40 to 70 µM in the series on mES cells (+2i media) and 10 to 120 µM in the series with mES cells (−2i media). As for `COC(=O)/C=C/C1=NC(=C\c2cc(F)c(O)c(F)c2)/C(=O)N1C` [DFAME, methyl 3-((Z)-4-(3,5-difluoro-4-hydroxybenzylidene)-1-methyl-5-oxo-4,5-dihydro-1H-imidazol-2-yl)acrylate], the “Fluorescence of dye-incubated cells” value in the series on HEK293T cells is “measurable but low levels of red fluorescence; also recorded: measurable, but low levels of red fluorescence”.
